In assay [1] the test system is extirpated guinea pig ileum pieces. In words: Transmural electric stimulation test on an extirpated guinea pig ileum piece (smooth muscle contraction). The format is cell-based. How it is done:
Example 7 Transmural Electric Stimulation Test on an Extirpated Guinea Pig Ileum Piece:
The effects of the compounds were examined by applying transmural electric stimulation (0.1 Hz) to extirpated guinea pig ileum pieces while using the smooth muscle contraction as an indication [refer to H.K. Kopsterlitz, A.A. Waterfield; Annu. Rev. Pharmacol., 15, 29 - 47 (1975)].
The data shown in Table 1 were calculated according to a method reported by Arunlakshana and Schild [refer to 0. Arunlakashana, H.O. Schild; Brit. J. Pharmacol., 14, 48 - 58 (1959)]. Each value is expressed in mean ± standard deviation.

The test system of assay [2] is male mice (Slc: ddy). The assay is described as follows: Analgesic examination by radiant heat-stimulation test (tail irradiation, pain threshold). The note with it: mouse, in vivo. The text has this: Example 6 Analgesic Examination by Radiant Heat-Stimulation Test:
The compounds of the present invention and morphine hydrochloride were subcutaneously injected into male mice (Slc: ddy) aged 4 weeks. Each group had 7 animals. An hour after the injection, the analgesic effect of each compound was examined by radiant heat-stimulation test [refer to A.G. Hayes, M.J. Sheehan, M.B. Tyers; Brit. J. Pharmacol., 91, 111 - 115 (1987)]. Namely, the tail of each mouse was irradiated with intense light and the time required until the animal switched its tail was measured. The value thus measured was referred to as the pain threshold.

Assay [3] deals with male mice (Slc: ddy). In words: Analgesic effect examined by acetic acid-writhing test. The note with it: mouse, in vivo. How it is done: Example 8 Analgesic Effect Examined by Acetic Acid- Writhing Test:
Male mice (Slc: ddy) aged 5 weeks were divided into groups each having 7 animals. The compounds of the present invention and morphine hydrochloride and pentazocine, which were employed as control compounds, were subcutaneously injected into these animals. After 30 minutes, 0.6% acetic acid was intraperitoneally administered to each mouse in a dose of 0.1 ml/10 g. 10 minutes thereafter, the writhings thus induced were counted within 10 minutes. […] The acetic acid-writhing test was conducted according to a method reported by R. Koster, M. Anderson and E.I. Debeer [refer to Fed. Proc., 18, 412 (1959)].
On the technique in general: An intraperitoneal irritant provokes the stretching counted in writhing tests.

Each structure is given as a SMILES string.

The compound `CN1CC[C@]23c4c5ccc(O)c4O[C@H]2[C@@H](O)C=C[C@H]3[C@H]1C5.Cl` [Morphine hydrochloride, reference compound] returned a pD₂ in assay [1] of 7.32 ± 0.13. For the same compound, the “analgesic activity 3 hours after administration” value in assay [2] is reported as “scarcely any analgesic activity”. The compound also showed an ED₅₀ in assay [3] of 0.139 mg/kg.

The record behind these values is EP0374919A1, “Morphine derivative” (Chugai Seiyaku Kabushiki Kaisha, priority 1988, dated 1990).
